Data as given in the supplement of paper PMC10849652.
Some of the results follow.

Chains of the proteins cited; added tags and fusions are not shown. Lines headed by an entry give the natural chain unless they say otherwise; changes in a name come on top.
UniProt Q9NUL3: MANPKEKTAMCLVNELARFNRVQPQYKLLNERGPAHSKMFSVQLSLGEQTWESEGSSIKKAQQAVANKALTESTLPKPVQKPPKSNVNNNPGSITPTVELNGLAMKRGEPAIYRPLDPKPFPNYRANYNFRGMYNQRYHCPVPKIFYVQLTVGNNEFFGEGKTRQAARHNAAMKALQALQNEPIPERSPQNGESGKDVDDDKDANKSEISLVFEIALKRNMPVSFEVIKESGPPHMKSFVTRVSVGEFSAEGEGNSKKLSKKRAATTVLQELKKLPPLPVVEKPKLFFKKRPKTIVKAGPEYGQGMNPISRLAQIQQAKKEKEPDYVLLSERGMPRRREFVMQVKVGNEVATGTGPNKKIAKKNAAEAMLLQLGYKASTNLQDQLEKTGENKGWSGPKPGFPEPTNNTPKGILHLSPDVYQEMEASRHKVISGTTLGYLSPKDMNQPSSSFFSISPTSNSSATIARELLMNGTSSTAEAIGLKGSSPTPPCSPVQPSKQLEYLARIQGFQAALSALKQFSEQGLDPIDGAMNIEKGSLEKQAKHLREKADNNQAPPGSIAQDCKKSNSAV
UniProt Q9UQ90: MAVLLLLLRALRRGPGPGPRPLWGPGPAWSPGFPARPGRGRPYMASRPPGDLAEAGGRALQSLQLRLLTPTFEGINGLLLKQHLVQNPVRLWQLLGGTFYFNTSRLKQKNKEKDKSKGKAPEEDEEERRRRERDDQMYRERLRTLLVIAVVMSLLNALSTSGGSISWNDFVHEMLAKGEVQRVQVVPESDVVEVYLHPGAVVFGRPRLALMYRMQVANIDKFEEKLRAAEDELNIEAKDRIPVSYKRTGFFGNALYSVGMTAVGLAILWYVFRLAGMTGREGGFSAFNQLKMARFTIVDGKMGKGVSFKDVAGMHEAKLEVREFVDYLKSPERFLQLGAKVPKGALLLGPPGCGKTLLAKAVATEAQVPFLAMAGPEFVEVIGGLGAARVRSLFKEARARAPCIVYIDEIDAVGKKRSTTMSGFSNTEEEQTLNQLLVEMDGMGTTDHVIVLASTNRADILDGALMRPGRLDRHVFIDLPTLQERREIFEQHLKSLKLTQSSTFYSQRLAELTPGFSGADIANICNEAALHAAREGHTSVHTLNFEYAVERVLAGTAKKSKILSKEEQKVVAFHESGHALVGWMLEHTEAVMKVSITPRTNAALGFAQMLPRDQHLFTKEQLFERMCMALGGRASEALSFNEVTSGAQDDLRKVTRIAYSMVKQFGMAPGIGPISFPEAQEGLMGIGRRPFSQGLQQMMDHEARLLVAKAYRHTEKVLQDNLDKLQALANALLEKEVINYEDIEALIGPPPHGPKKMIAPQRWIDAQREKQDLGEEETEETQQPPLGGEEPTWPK
UniProt O95793: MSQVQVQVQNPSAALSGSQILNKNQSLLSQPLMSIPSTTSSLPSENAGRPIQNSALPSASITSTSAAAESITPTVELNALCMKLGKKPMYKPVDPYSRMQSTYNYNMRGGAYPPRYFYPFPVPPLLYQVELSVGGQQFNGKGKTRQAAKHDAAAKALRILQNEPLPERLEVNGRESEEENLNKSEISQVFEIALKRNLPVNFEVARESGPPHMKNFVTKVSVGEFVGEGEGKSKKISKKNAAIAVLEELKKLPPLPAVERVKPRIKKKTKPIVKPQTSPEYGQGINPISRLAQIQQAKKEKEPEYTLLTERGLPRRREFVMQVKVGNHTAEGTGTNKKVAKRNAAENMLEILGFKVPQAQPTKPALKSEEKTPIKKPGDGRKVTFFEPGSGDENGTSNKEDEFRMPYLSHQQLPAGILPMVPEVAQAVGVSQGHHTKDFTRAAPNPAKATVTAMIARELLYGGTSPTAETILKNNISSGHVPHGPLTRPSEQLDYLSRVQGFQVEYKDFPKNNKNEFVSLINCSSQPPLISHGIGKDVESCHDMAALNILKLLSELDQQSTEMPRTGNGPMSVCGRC
UniProt O15269: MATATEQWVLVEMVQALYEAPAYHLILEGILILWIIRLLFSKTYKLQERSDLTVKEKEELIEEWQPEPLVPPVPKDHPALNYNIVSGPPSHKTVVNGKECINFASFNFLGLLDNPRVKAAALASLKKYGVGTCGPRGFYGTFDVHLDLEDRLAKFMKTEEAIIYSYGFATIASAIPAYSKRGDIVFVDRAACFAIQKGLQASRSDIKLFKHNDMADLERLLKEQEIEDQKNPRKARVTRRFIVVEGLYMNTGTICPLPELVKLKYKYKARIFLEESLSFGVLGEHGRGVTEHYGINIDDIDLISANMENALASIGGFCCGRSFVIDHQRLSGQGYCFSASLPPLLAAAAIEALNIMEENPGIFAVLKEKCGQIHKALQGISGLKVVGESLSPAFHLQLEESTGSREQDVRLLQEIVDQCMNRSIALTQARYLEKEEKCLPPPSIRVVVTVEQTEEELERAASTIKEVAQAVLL
UniProt Q08945, whole entry, looked up: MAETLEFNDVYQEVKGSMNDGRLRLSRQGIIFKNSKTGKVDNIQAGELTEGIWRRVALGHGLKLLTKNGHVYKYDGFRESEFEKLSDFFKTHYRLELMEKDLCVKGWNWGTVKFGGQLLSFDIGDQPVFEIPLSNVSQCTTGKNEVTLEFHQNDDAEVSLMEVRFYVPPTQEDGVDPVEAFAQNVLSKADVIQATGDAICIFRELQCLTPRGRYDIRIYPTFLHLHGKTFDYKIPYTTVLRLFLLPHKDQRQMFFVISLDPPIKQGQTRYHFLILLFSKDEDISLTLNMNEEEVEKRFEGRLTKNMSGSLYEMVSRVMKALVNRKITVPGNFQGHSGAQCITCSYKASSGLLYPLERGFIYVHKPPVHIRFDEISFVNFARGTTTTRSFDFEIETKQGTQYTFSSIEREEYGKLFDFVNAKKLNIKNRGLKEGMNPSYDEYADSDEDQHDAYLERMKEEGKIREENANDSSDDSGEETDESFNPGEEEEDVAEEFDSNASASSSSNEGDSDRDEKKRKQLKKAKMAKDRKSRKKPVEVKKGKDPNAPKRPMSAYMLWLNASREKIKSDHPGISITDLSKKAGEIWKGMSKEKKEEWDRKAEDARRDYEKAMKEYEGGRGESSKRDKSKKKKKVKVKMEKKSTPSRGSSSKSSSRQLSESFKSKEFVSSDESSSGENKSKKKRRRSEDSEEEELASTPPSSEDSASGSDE
UniProt Q16842: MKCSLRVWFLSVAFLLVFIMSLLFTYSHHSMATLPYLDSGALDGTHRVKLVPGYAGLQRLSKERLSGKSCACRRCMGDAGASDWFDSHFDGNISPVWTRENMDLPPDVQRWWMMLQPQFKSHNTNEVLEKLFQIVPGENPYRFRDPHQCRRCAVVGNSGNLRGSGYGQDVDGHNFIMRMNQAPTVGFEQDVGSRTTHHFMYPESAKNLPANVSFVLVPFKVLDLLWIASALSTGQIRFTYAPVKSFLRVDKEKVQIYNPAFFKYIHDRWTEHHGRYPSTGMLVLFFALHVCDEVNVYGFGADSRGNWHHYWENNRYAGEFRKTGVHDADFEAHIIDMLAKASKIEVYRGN
UniProt Q8TCT7: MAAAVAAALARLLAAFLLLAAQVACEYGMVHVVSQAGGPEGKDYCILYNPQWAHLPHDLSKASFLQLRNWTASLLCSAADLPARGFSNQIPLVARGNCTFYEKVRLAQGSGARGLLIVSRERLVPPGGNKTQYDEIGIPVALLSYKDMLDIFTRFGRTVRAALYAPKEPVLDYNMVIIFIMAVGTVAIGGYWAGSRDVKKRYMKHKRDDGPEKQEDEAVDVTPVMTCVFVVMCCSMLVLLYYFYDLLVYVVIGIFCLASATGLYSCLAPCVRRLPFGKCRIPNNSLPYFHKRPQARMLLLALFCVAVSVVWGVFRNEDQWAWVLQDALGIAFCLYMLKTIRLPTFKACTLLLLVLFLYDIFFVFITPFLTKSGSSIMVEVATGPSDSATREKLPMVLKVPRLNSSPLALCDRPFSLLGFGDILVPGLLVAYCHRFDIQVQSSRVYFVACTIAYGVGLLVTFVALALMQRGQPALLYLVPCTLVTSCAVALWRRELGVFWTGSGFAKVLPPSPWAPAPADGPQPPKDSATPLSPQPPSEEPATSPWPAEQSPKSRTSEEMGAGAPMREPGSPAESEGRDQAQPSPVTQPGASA
UniProt Q13586, whole entry, looked up: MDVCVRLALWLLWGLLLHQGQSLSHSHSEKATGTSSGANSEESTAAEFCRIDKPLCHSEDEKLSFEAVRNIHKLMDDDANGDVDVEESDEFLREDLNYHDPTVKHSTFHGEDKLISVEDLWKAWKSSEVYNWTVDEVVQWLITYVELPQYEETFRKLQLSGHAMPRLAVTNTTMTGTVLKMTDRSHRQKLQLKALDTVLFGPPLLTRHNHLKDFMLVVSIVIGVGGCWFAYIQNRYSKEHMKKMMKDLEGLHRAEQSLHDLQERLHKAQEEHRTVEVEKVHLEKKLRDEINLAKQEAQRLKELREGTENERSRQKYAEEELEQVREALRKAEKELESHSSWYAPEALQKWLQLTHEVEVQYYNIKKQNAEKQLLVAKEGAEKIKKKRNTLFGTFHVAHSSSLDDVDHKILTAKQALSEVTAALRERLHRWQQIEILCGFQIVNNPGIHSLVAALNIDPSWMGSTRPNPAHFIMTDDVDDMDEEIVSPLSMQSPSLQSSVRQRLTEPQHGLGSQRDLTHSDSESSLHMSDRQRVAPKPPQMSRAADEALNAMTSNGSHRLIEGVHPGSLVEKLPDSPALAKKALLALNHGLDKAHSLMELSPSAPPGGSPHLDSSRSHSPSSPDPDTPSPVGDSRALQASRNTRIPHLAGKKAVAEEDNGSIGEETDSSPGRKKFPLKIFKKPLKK
UniProt P37108: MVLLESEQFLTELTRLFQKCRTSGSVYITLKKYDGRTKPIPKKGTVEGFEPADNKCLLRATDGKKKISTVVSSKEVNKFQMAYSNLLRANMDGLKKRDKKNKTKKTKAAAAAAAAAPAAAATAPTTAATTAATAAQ
UniProt Q13247: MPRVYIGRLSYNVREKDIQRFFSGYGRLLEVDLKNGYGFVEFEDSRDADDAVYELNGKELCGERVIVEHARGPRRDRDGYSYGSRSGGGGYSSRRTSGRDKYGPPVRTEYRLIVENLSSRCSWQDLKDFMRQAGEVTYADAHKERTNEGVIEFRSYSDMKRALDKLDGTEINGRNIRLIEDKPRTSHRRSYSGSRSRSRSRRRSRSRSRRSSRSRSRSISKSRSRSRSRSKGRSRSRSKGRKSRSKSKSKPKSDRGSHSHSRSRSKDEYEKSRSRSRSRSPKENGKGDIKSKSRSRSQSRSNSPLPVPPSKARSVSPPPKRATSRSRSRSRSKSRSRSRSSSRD
UniProt Q8N0X7: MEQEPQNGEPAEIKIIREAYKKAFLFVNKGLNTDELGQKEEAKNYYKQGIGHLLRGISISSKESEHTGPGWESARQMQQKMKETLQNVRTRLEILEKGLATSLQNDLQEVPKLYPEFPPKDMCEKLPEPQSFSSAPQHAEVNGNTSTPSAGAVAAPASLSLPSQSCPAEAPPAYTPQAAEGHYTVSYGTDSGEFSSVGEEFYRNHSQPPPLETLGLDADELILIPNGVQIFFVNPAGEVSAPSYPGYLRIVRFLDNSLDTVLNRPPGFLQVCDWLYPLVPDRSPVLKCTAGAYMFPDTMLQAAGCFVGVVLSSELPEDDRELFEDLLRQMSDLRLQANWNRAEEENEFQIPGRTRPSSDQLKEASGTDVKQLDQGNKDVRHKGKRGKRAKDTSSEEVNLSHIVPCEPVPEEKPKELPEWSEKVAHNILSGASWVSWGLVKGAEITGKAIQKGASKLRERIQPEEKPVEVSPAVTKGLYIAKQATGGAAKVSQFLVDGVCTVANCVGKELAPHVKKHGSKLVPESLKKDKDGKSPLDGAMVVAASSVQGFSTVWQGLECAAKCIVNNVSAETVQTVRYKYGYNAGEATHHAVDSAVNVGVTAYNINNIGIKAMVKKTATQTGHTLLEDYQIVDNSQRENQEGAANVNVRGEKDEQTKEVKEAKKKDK
UniProt Q9BUA3: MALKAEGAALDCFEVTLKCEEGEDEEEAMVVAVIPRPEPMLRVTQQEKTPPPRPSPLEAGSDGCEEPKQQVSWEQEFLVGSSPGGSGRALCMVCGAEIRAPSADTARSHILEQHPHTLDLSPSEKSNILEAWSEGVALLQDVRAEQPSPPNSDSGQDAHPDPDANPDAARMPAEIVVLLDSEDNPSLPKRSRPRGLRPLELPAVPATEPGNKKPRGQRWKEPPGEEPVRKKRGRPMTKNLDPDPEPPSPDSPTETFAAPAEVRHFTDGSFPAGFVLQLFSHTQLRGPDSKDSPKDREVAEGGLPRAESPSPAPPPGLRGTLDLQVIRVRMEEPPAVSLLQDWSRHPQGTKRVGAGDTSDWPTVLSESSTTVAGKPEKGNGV
UniProt Q8N9Q2: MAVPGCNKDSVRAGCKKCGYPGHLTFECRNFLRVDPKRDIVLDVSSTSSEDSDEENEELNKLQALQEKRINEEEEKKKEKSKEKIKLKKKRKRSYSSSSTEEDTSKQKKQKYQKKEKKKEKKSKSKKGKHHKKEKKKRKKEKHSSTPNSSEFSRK

Experiments:
Assay in all cases: log2 fold change, soluble protein after heating vs DMSO (PISA); higher = thermal stabilisation; K562 cells, 10 uM, 30 min; active = over 0.2 and 3.5 SD of the protein, either way, in both replicates (recomputed)
[1] = compound: CS(=O)(=O)c1ccc(-c2cnc(N)c(C(=O)Nc3ccccc3)n2)cc1
Outline: (§1)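 K562 cells at 2×10^6 cells/mL were exposed to 10 μM compound for 30 min, then aliquots were heated for 3 min across 48°C-58°C, pooled, and extracted in PBS containing 0.5% NP-40 at 4°C. The supernatant after 21,000xg for 90 min was taken as soluble protein and measured by TMTpro 16plex LC-MS/MS with channel sums equalised. Thermal stability is reported relative to control samples, with values from duplicates. Fold changes are given on a log2 scale.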

crizotinib = compound: C[C@@H](Oc1cc(-c2cnn(C3CCNCC3)c2)cnc1N)c1c(Cl)ccc(F)c1Cl [crizotinib]
Outline: as §1

[2] = compound: C[C@@H]1COCCN1C2=NC(=NC(=C2)C3(CC3)S(=O)(=O)C)C4=C5C=CNC5=CC=C4
Outline: as §1

[3] = compound: C[C@H](C1=CC=C(C=C1)C(=O)NC2=C3C=CNC3=NC=C2)N
Outline: as §1

duvelisib = compound: C[C@H](Nc1ncnc2nc[nH]c12)c1cc2cccc(Cl)c2c(=O)n1-c1ccccc1 [duvelisib]
Outline: as §1

gandotinib = compound: Cc1cc(Nc2cc(CN3CCOCC3)c3nc(C)c(Cc4ccc(Cl)cc4F)n3n2)n[nH]1 [gandotinib]
Outline: as §1

tozasertib = compound: Cc1cc(Nc2cc(N3CCN(C)CC3)nc(Sc3ccc(NC(=O)C4CC4)cc3)n2)n[nH]1 [tozasertib]
Outline: as §1

[4] = compound: Cc1cc(SCc2sc(-c3ccc(C(F)(F)F)cc3)nc2C)ccc1OCC(=O)O
Outline: as §1

doramapimod = compound: Cc1ccc(-n2nc(C(C)(C)C)cc2NC(=O)Nc2ccc(OCCN3CCOCC3)c3ccccc23)cc1 [doramapimod]
Outline: as §1

bafetinib = compound: Cc1ccc(NC(=O)c2ccc(CN3CC[C@H](N(C)C)C3)c(C(F)(F)F)c2)cc1Nc1nccc(-c2cncnc2)n1 [bafetinib]
Outline: as §1

[5] = compound: Cc1cccc(CC(=O)N2CCc3c2ccc(-c2cn(C)c4ncnc(N)c24)c3F)n1
Outline: as §1

dasatinib = compound: Cc1nc(Nc2ncc(C(=O)Nc3c(C)cccc3Cl)s2)cc(N2CCN(CCO)CC2)n1 [dasatinib]
Outline: as §1

[6] = compound: Cn1cc(-c2ccc3c(c2)CCN3C(=O)Cc2cccc(C(F)(F)F)c2)c2c(N)ncnc21
Outline: as §1

tipifarnib = compound: Cn1cncc1[C@@](N)(c1ccc(Cl)cc1)c1ccc2c(c1)c(-c1cccc(Cl)c1)cc(=O)n2C [tipifarnib]
Outline: as §1

mubritinib = compound: FC(F)(F)c1ccc(/C=C/c2nc(COc3ccc(CCCCn4ccnn4)cc3)co2)cc1 [mubritinib]
Outline: as §1

ispinesib = compound: Cc1ccc(C(=O)N(CCCN)[C@@H](c2nc3cc(Cl)ccc3c(=O)n2Cc2ccccc2)C(C)C)cc1 [ispinesib]
Outline: as §1

nilotinib = compound: Cc1cn(-c2cc(NC(=O)c3ccc(C)c(Nc4nccc(-c5cccnc5)n4)c3)cc(C(F)(F)F)c2)cn1 [nilotinib]
Outline: as §1

[7] = compound: Cc1nc(Nc2n[nH]c3c2CN(C(=O)N[C@H](CN(C)C)c2ccccc2)C3(C)C)c2sccc2n1
Outline: as §1

[8] = compound: Cc1ncc(-c2ccnc(Nc3ccc(S(C)(=O)=O)cc3)n2)n1C(C)C
Outline: as §1

[9] = compound: Cn1cc(-c2ccc3nnc(C(F)(F)c4ccc5ncccc5c4)n3n2)cn1
Outline: as §1

Target | log2 fold change [1] | log2 fold change (crizotinib) | log2 fold change [2] | log2 fold change [3] | log2 fold change (duvelisib) | log2 fold change (gandotinib) | log2 fold change (tozasertib) | log2 fold change [4] | log2 fold change (doramapimod) | log2 fold change (bafetinib) | log2 fold change [5] | log2 fold change (dasatinib) | log2 fold change [6] | log2 fold change (tipifarnib) | log2 fold change (mubritinib) | log2 fold change (ispinesib) | log2 fold change (nilotinib) | log2 fold change [7] | log2 fold change [8] | log2 fold change [9]
STAU2 (UniProt Q9NUL3) | inactive: -0.073 | inactive: -0.238 | inactive: -0.168 | inactive: 0.407 | inactive: 0.253 | inactive: 0.262 | inactive: -0.005 | inactive: 0.031 | inactive: 0.122 | inactive: 0.147 | inactive: -0.053 | inactive: 0.071 | inactive: -0.4 | inactive: -0.334 | inactive: -0.095 | – | – | – | – | –
SPG7 (UniProt Q9UQ90) | inactive: -0.002 | inactive: -0.014 | inactive: 0.03 | inactive: 0.049 | inactive: 0.075 | inactive: -0.068 | inactive: -0.001 | inactive: 0.028 | inactive: -0.036 | inactive: -0.055 | inactive: -0.049 | inactive: 0.013 | inactive: 0.002 | inactive: 0.021 | inactive: -0.022 | inactive: -0.093 | inactive: -0.012 | inactive: 0 | inactive: -0.008 | inactive: 0.044
STAU1 (UniProt O95793) | inactive: -0.119 | inactive: 0.022 | inactive: -0.76 | inactive: 0.475 | inactive: -0.213 | inactive: 0.333 | inactive: 0.035 | inactive: 0.066 | inactive: 0.228 | inactive: 0.241 | inactive: 0 | inactive: 0.166 | inactive: -0.344 | inactive: 0.304 | inactive: -0.232 | inactive: -0.298 | inactive: -0.041 | inactive: 0.056 | inactive: -0.006 | inactive: -0.187
SPIRE2 (UniProt Q8WWL2) | inactive: 0.076 | inactive: 0.286 | inactive: 0.351 | inactive: -0.086 | inactive: -0.256 | inactive: 0.22 | inactive: 0.131 | inactive: -0.028 | inactive: 0.12 | inactive: 0.001 | inactive: -0.095 | inactive: 0.141 | inactive: 0.476 | – | – | inactive: -0.066 | – | – | – | inactive: -0.193
SPTLC1 (UniProt O15269) | inactive: 0.011 | inactive: 0.011 | inactive: 0.022 | inactive: 0.037 | inactive: 0.047 | inactive: -0.017 | inactive: 0.006 | inactive: 0.071 | inactive: 0.056 | inactive: 0.007 | inactive: 0.053 | inactive: -0.065 | inactive: 0.001 | inactive: -0.027 | inactive: 0.072 | inactive: -0.011 | inactive: 0.086 | inactive: 0.003 | inactive: 0.015 | inactive: 0
SPTA1 (UniProt P02549) | inactive: 0.044 | inactive: -0.012 | inactive: -0.142 | inactive: 0.367 | inactive: -0.065 | inactive: 0.06 | inactive: 0.139 | inactive: 0.135 | inactive: 0.195 | inactive: 0.042 | inactive: 0.037 | inactive: 0.003 | inactive: -0.139 | inactive: 0.037 | inactive: -0.138 | inactive: -0.255 | inactive: -0.04 | inactive: -0.148 | inactive: -0.031 | inactive: -0.099
SSRP1 (UniProt Q08945) | inactive: -0.024 | inactive: -0.018 | inactive: 0.144 | inactive: -0.088 | – | inactive: -0.029 | – | inactive: 0.072 | inactive: -0.027 | inactive: 0.007 | inactive: 0.015 | inactive: -0.059 | inactive: 0.03 | inactive: 0 | inactive: 0.009 | inactive: 0.048 | inactive: -0.025 | inactive: -0.175 | inactive: -0.075 | inactive: -0.033
ST3GAL2 (UniProt Q16842) | inactive: 0.096 | inactive: -0.288 | inactive: -0.017 | inactive: 0.006 | – | inactive: 0.127 | – | inactive: 0.033 | inactive: 0 | inactive: 0.092 | inactive: -0.008 | inactive: 0.179 | inactive: -0.039 | inactive: 0.076 | inactive: -0.026 | inactive: -0.096 | inactive: 0.191 | inactive: -0.042 | inactive: 0.081 | inactive: -0.022
SPPL2B (UniProt Q8TCT7) | inactive: 0.049 | inactive: -0.011 | inactive: -0.072 | inactive: 0.006 | – | inactive: -0.004 | – | inactive: -0.022 | inactive: 0.01 | inactive: -0.087 | inactive: 0.066 | inactive: -0.066 | inactive: 0.116 | inactive: 0.036 | inactive: -0.008 | inactive: -0.026 | inactive: -0.016 | inactive: -0.006 | inactive: 0.009 | inactive: -0.118
STIM1 (UniProt Q13586) | inactive: 0.015 | inactive: -0.07 | inactive: 0.087 | inactive: -0.028 | – | inactive: -0.008 | – | inactive: 0.057 | inactive: 0.011 | inactive: -0.143 | inactive: 0 | inactive: -0.006 | inactive: 0.028 | inactive: 0.012 | inactive: 0.016 | inactive: -0.233 | inactive: 0.002 | inactive: -0.01 | inactive: -0.025 | inactive: 0.01
SRP14 (UniProt P37108) | inactive: -0.078 | inactive: 0.091 | inactive: -0.516 | inactive: 0.366 | inactive: -0.15 | inactive: 0.373 | inactive: 0.025 | inactive: -0.005 | inactive: 0.195 | inactive: 0.207 | inactive: 0.003 | inactive: 0.18 | inactive: -0.295 | inactive: 0.171 | inactive: -0.178 | inactive: -0.164 | inactive: -0.003 | inactive: 0.121 | inactive: -0.023 | inactive: -0.161
SPTB isoform 2 (UniProt P11277) | inactive: 0.23 | inactive: -0.056 | inactive: -0.126 | inactive: 0.179 | inactive: -0.026 | inactive: 0.008 | inactive: 0.019 | inactive: 0.212 | inactive: 0.081 | inactive: -0.596 | inactive: 0.152 | inactive: -0.066 | inactive: -0.114 | inactive: -0.023 | inactive: -0.129 | inactive: -0.283 | inactive: -0.185 | inactive: -0.329 | inactive: -0.086 | inactive: -0.082
SRSF6 (UniProt Q13247) | inactive: -0.021 | inactive: -0.09 | inactive: -0.195 | inactive: 0.03 | – | inactive: -0.043 | – | inactive: 0.059 | inactive: -0.047 | inactive: 0.578 | inactive: 0.192 | inactive: 0.079 | inactive: -0.251 | inactive: 0.212 | inactive: -0.014 | – | inactive: 0.155 | active: -0.813 | inactive: 0.095 | –
SPART (UniProt Q8N0X7) | inactive: 0.006 | inactive: -0.107 | inactive: 0.056 | inactive: 0.101 | – | inactive: -0.088 | – | inactive: 0.055 | inactive: 0.014 | inactive: -0.041 | inactive: -0.024 | inactive: -0.117 | inactive: -0.025 | inactive: -0.077 | inactive: 0.063 | inactive: -0.001 | inactive: -0.047 | inactive: -0.006 | inactive: 0.051 | inactive: 0.059
SPINT1 (UniProt O43278) | inactive: 0.076 | inactive: -0.038 | inactive: -0.008 | – | – | inactive: -0.123 | – | – | inactive: 0.03 | – | inactive: 0 | – | – | inactive: 0.127 | – | inactive: 0.249 | – | – | – | inactive: 0.24
SRC isoform 2 (UniProt P12931) | inactive: -0.248 | inactive: -0.154 | inactive: 0.229 | inactive: 0.07 | – | inactive: -0.056 | – | inactive: 0.101 | inactive: -0.052 | inactive: -0.054 | inactive: -0.037 | – | inactive: 0.008 | inactive: 0.005 | inactive: 0.031 | inactive: -0.068 | inactive: -0.041 | inactive: -0.499 | inactive: -0.136 | inactive: -0.163
SPINDOC (UniProt Q9BUA3) | inactive: 0.09 | inactive: 0.104 | inactive: -0.059 | inactive: -0.074 | – | inactive: -0.001 | – | inactive: 0.053 | inactive: 0.097 | inactive: -0.149 | inactive: -0.031 | inactive: -0.105 | inactive: -0.085 | inactive: 0.046 | inactive: 0.04 | inactive: -0.008 | inactive: 0.049 | active: -0.458 | inactive: -0.127 | inactive: -0.044
SREK1IP1 (UniProt Q8N9Q2) | inactive: -0.008 | – | inactive: -0.194 | inactive: 0.232 | inactive: 0.027 | inactive: 0.113 | inactive: 0.043 | inactive: 0.03 | – | inactive: 0.001 | inactive: -0.014 | inactive: 0.09 | inactive: -0.058 | inactive: 0.09 | inactive: -0.063 | inactive: 0.011 | inactive: -0.003 | inactive: 0.093 | inactive: -0.058 | inactive: 0.025

An excerpt of these results, in markdown:

| Target | log2 fold change [1] | log2 fold change (crizotinib) | log2 fold change [2] | log2 fold change [3] | log2 fold change (duvelisib) | log2 fold change (gandotinib) | log2 fold change (tozasertib) | log2 fold change [4] | log2 fold change (doramapimod) | log2 fold change (bafetinib) | log2 fold change [5] | log2 fold change (dasatinib) | log2 fold change [6] | log2 fold change (tipifarnib) | log2 fold change (mubritinib) | log2 fold change (ispinesib) | log2 fold change (nilotinib) | log2 fold change [7] | log2 fold change [8] | log2 fold change [9] |
| --- | --- | --- | --- | --- | --- | --- | --- | --- | --- | --- | --- | --- | --- | --- | --- | --- | --- | --- | --- | --- |
| SPART (UniProt Q8N0X7) | inactive: 0.006 | inactive: -0.107 | inactive: 0.056 | inactive: 0.101 | – | inactive: -0.088 | – | inactive: 0.055 | inactive: 0.014 | inactive: -0.041 | inactive: -0.024 | inactive: -0.117 | inactive: -0.025 | inactive: -0.077 | inactive: 0.063 | inactive: -0.001 | inactive: -0.047 | inactive: -0.006 | inactive: 0.051 | inactive: 0.059 |
| SPINT1 (UniProt O43278) | inactive: 0.076 | inactive: -0.038 | inactive: -0.008 | – | – | inactive: -0.123 | – | – | inactive: 0.03 | – | inactive: 0 | – | – | inactive: 0.127 | – | inactive: 0.249 | – | – | – | inactive: 0.24 |
